Measured values taken from ChEMBL document CHEMBL5608208, “Design, synthesis of griseofamine A derivatives and development of potent antibacterial agents against MRSA” (Eur J Med Chem, 2024).
Converted amounts (≈) assume the structure as drawn.

Columns and labels:
Bacillus subtilis = assay: Antibacterial activity against Bacillus subtilis CMCC 63501 incubated for 18 hrs by serial two-fold dilution method; assay type: functional
Enterococcus faecium = assay: Antibacterial activity against Enterococcus faecium ATCC 700221 incubated for 18 hrs by serial two-fold dilution method; assay type: functional

CN[C@H](CC(C)C)C(=O)N[C@H]1C(=O)N[C@@H](CC(N)=O)C(=O)N[C@H]2C(=O)N[C@H]3C(=O)N[C@H](C(=O)N[C@H](C(=O)O)c4cc(O)cc(O)c4-c4cc3ccc4O)[C@H](O)c3ccc(c(Cl)c3)Oc3cc2cc(c3O[C@@H]2O[C@H](CO)[C@@H](O)[C@H](O)[C@H]2O[C@H]2C[C@](C)(N)[C@H](O)[C@H](C)O2)Oc2ccc(cc2Cl)[C@H]1O [VANCOMYCIN]
MIC (Bacillus subtilis): 0.23 µg/mL (≈ 0.159 µM)
MIC (Enterococcus faecium): 3.5 µg/mL (≈ 2.42 µM)
